Article PMC13373324
No constants are given. Whether binding was seen depends on the method and setting. Binding calls can cover weak binding; strength is not graded here.

The chains behind the UniProt entries cited, without tags or fusion partners. Where a name states a change or a piece, a line headed by the entry shows the natural chain unless it says otherwise.
UniProt P35817: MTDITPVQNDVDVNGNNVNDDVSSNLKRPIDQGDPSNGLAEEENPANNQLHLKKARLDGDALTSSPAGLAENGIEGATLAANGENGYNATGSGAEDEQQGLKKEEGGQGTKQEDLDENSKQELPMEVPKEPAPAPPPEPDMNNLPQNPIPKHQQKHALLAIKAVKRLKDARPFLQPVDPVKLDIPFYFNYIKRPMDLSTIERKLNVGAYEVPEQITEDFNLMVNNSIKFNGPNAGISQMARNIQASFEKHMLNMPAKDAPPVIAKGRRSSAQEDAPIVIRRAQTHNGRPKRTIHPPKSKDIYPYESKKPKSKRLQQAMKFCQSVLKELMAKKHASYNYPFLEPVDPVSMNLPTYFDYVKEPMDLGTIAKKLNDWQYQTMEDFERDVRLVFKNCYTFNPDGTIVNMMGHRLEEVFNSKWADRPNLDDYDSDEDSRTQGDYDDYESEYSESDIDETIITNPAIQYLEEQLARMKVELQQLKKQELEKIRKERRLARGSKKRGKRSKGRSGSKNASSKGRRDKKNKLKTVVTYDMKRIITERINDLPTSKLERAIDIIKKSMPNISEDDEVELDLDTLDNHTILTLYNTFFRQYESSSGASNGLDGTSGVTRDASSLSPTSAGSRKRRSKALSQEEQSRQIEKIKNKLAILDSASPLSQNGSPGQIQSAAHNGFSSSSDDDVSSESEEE

Target: T1, Taf7 (WT) (S. cerevisiae) (UniProt Q05021)
T1 sequence: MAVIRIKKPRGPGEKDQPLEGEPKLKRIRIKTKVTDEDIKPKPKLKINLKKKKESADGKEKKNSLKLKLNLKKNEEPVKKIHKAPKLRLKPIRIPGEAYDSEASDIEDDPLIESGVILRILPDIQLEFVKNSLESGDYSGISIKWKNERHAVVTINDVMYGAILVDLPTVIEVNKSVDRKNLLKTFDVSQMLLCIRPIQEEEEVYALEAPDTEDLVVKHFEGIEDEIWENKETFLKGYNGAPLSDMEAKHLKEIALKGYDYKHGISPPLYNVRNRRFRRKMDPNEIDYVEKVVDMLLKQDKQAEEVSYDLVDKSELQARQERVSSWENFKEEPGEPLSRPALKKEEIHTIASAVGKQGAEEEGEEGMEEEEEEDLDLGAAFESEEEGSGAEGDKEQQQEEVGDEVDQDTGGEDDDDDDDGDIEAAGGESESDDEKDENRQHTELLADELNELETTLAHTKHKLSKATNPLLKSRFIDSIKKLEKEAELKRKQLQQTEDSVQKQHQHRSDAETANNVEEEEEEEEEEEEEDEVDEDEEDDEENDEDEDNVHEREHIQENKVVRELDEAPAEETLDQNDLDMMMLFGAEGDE
Assay: two-hybrid; Matchmaker Gold Y2H system; strain Y2HGold co-transformed with Gal4-BD (pGBKT7) and Gal4-AD (pGADT7) plasmids; tenfold serial dilutions spotted on SC-Leu-Trp and SC-Leu-Trp-His plates, 30°C, imaged daily for at least 4 days

Substance | binding
Bdf1 ET domain with four conserved acidic residues substituted with alanine (S. cerevisiae) (domain or fragment) | no binding
Bdf1 ET domain (WT) (from UniProt P35817) (domain or fragment) | binds
